# In PubChem BioAssay AID2517 (National Center for Advancing Translational Sciences (NCATS), 2010):
# Sequences of proteins named here, by UniProt entry; tags and fusion partners are left off.
# UniProt P27695, whole entry, looked up: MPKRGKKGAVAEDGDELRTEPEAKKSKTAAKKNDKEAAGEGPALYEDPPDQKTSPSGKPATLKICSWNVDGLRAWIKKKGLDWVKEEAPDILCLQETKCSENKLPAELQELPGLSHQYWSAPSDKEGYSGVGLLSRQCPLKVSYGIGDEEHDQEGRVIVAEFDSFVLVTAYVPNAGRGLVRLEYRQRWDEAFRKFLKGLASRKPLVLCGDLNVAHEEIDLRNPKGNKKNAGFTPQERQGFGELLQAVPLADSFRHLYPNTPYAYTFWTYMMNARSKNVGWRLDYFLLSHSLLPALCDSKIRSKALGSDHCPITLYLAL
# The whole screen tested about 350,000 compounds, of which about 1,200 (0.34%) were called active. The inconclusive results got no clear call from the source; some entries with a clear call stand among them for comparison. Calls follow the shape of the dose curve; as a rule, active = well fitted inhibition curve with a large enough effect; inconclusive = small, poorly fitted or top-dose-only effect; inactive = no such curve, though single readings can be large or run the other way. Potencies of inconclusive entries are doubtful fits and often do not repeat.
# Target: DNA repair nuclease/redox regulator APEX1 (Homo sapiens) (UniProt P27695)
# Assay: qHTS Assay for Inhibitors of the Human Apurinic/apyrimidinic Endonuclease 1 (APE1); also: nearly all actives have a fitted effect of over 55% in size;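 as to activity change, negative = inhibition: plate controls were vehicle for no effect and reference inhibitor for full effect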
# Conditions: recombinant APE1, TAMRA/BHQ-2 abasic DNA cleavage fluorescence; activity change, negative = inhibition: at 65.8 µM (top of the series)
# In short: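 Measures dequenching upon AP-site incision of a 5'-TAMRA/3'-BHQ-2 THF-containing duplex, 50 nM; human APE1 0.75 nM after 15 min room-temperature exposure to compound; kinetic three-point read at one-minute spacing.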
# Potency is read from the fitted curve at half-maximal effect.
Compound,Potency,"activity change, negative = inhibition"
COc1ccc(/C=C/N(CCc2ccc(OC)c(OC)c2)C(C)=O)cc1,"inconclusive: 5.01 µM [inhibitor, single point]",–
O=C(O)c1cc(-c2ccc(-c3ccc(F)cc3)o2)nc2ccccc12,–,inactive: 9.03%
CC(=O)c1ccc(N2CCN(c3ccc(C(N)=O)cc3[N+](=O)[O-])CC2)cc1,–,inactive: 20.2%
CSc1nc(SCCO)c2sc3nc(-c4ccco4)c4c(c3c2n1)CC(C)(C)OC4,"inconclusive: 15.8 µM [inhibitor, partial curve]",–
COc1cc(CC(NC(C)=O)C(=O)NC2CCN(S(=O)(=O)c3ccc(NC(C)=O)cc3)CC2)cc(OC)c1 (configuration not stated),"inconclusive: 37.7 µM [inhibitor, single point]",–
CCC(=O)c1ccc(OCC(=O)N2CCCC2)c(OC)c1,"inconclusive: 31.6 µM [inhibitor, single point]",–
Cc1ccc(NC(=O)c2ccc(S(=O)(=O)NCC3CCCO3)cc2)cc1C (configuration not stated),"inconclusive: 501 µM [inhibitor, partial curve, poor fit]",–
COCCNC(=O)Cn1c(=O)n(CCC(=O)NCCc2ccccc2)c(=O)c2ccccc21,"inconclusive: 2.24 µM [inhibitor, full curve, poor fit]",–
N#Cc1ccccc1Cn1cc(/C=N/Nc2ccc([N+](=O)[O-])cn2)c2ccccc21,"inconclusive: 0.02 µM [inhibitor, full curve, poor fit]",–
O=C1N/C(=C\c2ccc(O)cc2)C(=O)c2ccccc21,"inconclusive: 39.8 µM [inhibitor, single point]",–
COc1cc(O)cc2cc3c(c(O)c12)C(=O)CC(C)(O)O3 (configuration not stated),"inconclusive: 28.2 µM [inhibitor, partial curve]",–
C#CCOCCOCCOCCNc1nc(N2CCN(C(=O)CCCCCCCCCCNC(=O)[C@H](CCCCN)n3cc(CCO)nn3)CC2)nc(N2CCN(C(=O)CCCCCCCCCCNC(=O)[C@H](CCCN=C(N)N)n3cc(C[C@@H](C)CC)nn3)CC2)n1,"inconclusive: 26.7 µM [inhibitor, single point]",–
Cc1cc2nc(CCN(C(=S)NCC3CCCO3)C3CCCC3)[nH]c2cc1C (configuration not stated),"inconclusive: 35.5 µM [inhibitor, single point]",–
N#CCCS(=O)(=O)c1ccccc1,–,inactive: 0.622%
CC(CS(=O)(=O)c1ccc2c(c1)NC(=O)CS2)C(=O)NCc1ccccc1Cl (configuration not stated),"inconclusive: 18.9 µM [inhibitor, partial curve]",–
CCN(CC)S(=O)(=O)c1cccc(C(=O)OCc2cc(=O)n3nc(C)sc3n2)c1,"inconclusive: 39.8 µM [inhibitor, single point]",–
Cc1[nH]c2ccccc2c1-c1csc(NC(=O)CSCC(=O)O)n1,"inconclusive: 8.91 µM [inhibitor, single point]",–
CCOC(=O)Cc1csc(NC(=O)NC2(C(F)(F)F)Oc3ccccc3O2)n1,"inconclusive: 20 µM [inhibitor, partial curve, poor fit]",–
CC(C)[C@H](NC(=O)[C@H](CCC(N)=O)NC(=O)CNC(=O)[C@@H]1CCCN1C(=O)[C@H](Cc1ccc(O)cc1)NC(=O)CN)C(=O)O,–,inactive: -6.14%
Cc1cc(NS(=O)(=O)c2ccc(NS(=O)(=O)c3ccc(Br)cc3)cc2)no1,–,inactive: 3.35%
O=C(O)c1ccc(S(=O)(=O)N[C@H](Cc2c[nH]c3ccccc23)C(=O)O)cc1,"inconclusive: 39.8 µM [inhibitor, single point]",–

Compound,Potency,"activity change, negative = inhibition"
CCNC(=S)N/N=C1\C(=O)c2cccc3cccc1c23,–,inactive: 10.2%
Cc1ccc(C(=O)C2Oc3ccccc3C3CC(c4ccc(C)cc4)=NN23)cc1 (configuration not stated),"inconclusive: 44.7 µM [inhibitor, single point]",–
O=c1c2c(nc3cc(-c4ccccc4)[nH]n13)CCC2,"inconclusive: 0.0035 µM [inhibitor, full curve, poor fit]",–
CC(C)C(C)C,"inconclusive: 39.8 µM [inhibitor, partial curve, poor fit]",–
COc1ccc(-c2nn(-c3ccccc3)cc2C(=O)O)cc1,"inconclusive: 44.7 µM [inhibitor, single point]",–
O=C(CN1C(=O)/C(=C2\SC(=S)N(CCS(=O)(=O)O)C2=O)c2ccccc21)Nc1cccc(Br)c1,active: 6.7 µM,–
CS(=O)(=O)N(CC(=O)NN=C1CCCCCC1)c1ccc(Oc2ccccc2)cc1,"inconclusive: 39.8 µM [inhibitor, single point]",–
Cc1cc(NCc2ccccn2)ccc1Br,"inconclusive: 0.316 µM [inhibitor, full curve, poor fit]",–
COC(=O)c1ccc(Cn2c(CN3CCOCC3)nc3ccccc3c2=O)o1,"inconclusive: 20 µM [inhibitor, single point]",–
Nc1nnc(SCc2c(F)cccc2Cl)s1,"inconclusive: 22.4 µM [inhibitor, single point]",–
CCOc1ccc(C(=O)NCc2ccco2)cc1,"inconclusive: 28.2 µM [inhibitor, partial curve]",–
COc1ccc(C)cc1NC(=O)C(OC(=O)CNC(=O)c1cc(C)cc(C)c1)c1ccccc1 (configuration not stated),–,inactive: -9.95%
COc1ccccc1CNC(=O)c1cccc2c1C(=O)N(Cc1cccnc1)C2,"inconclusive: 28.2 µM [inhibitor, single point]",–
CCN(CC)CCNc1ncnc2c1sc1nc(N3CCCC3)c3c(c12)CC(C)(C)OC3,"inconclusive: 31.6 µM [inhibitor, partial curve]",–
O=C(O)/C=C\C(=O)Nc1cccc(C(=O)Nc2cccc(O)c2)c1,"inconclusive: 44.7 µM [inhibitor, single point]",–
COc1ccc(-c2cc(C(=O)NCC3CCCO3)c3ccccc3n2)cc1 (configuration not stated),"inconclusive: 0.0045 µM [inhibitor, full curve, poor fit]",–
CCOC(=O)C(=Cc1ccccc1OC)C(=O)OCC,"inconclusive: 7.08 µM [inhibitor, partial curve, poor fit]",–
COc1ccccc1-c1cc(=O)c2c(O)ccc([N+](=O)[O-])c2o1,"inconclusive: 10 µM [inhibitor, single point]",–
CC[N+]1=C(C)C(C)(C)c2cc(C)ccc21,active: 10 µM,–
O=C(O)CCN1C(=O)/C(=C2\C(=O)N(Cc3ccccc3Cl)c3ccccc32)SC1=S,active: 7.52 µM,–
COc1cc(/C=N/NC(=O)C(=O)NCc2ccco2)cc(Cl)c1O,"inconclusive: 39.8 µM [inhibitor, single point]",–

Compound,Potency,"activity change, negative = inhibition"
CCCN(CCC)CCNS(=O)(=O)c1ccc2c(c1)CCN2C(=O)C1CCC1,"inconclusive: 0.891 µM [inhibitor, partial curve]",–
CC(=O)N1CCN(C(=O)c2cc(S(=O)(=O)Nc3ccc(S(C)(=O)=O)cc3)ccc2Cl)CC1,"inconclusive: 25.1 µM [inhibitor, single point]",–
O=C(COC(=O)c1cc2c(s1)CCC2)Nc1ccc(F)cc1,active: 15.8 µM,–
COC(=O)c1[nH]c2ccc(Cl)cc2c1NC(=O)c1ccccc1[N+](=O)[O-],–,inactive: -2.06%
C=CCc1cc(C)ccc1OCC(O)CN1CCN(c2ccccc2)CC1 (configuration not stated),"inconclusive: 10 µM [inhibitor, partial curve, poor fit]",–
Cc1ccc(Sc2ncccc2COC(=O)Nc2c(C)cccc2C)cc1,"inconclusive: 14.1 µM [inhibitor, partial curve]",–
CCC1Oc2ccc(C)cc2N(CC(=O)NCc2cccc(OC)c2)C1=O (configuration not stated),"inconclusive: 28.2 µM [inhibitor, single point]",–
CCn1c2ccccc2c2cc(NC(=O)COC(=O)c3ccccc3O)ccc21,"inconclusive: 10 µM [inhibitor, partial curve, poor fit]",–
CCc1ccc(N2C(=O)CC(c3ccc(F)cc3)C3=C2COC3=O)cc1 (configuration not stated),"inconclusive: 14.1 µM [inhibitor, partial curve]",–
CC1CC(=O)N(c2ccc(NCCc3ccccc3)c([N+](=O)[O-])c2)C1=O (configuration not stated),"inconclusive: 10 µM [inhibitor, single point]",–
COC(=O)C(C(=O)OC)[C@@H]1c2ccccc2[C@H]2C(=C[C@@H](C)[C@H]3C(=O)N(c4ccccc4)C(=O)[C@H]32)N1C(=O)OC,–,inactive: 1.32% [at 12.4 µM]
COc1ccc(-c2nc3cnc(N4CCNCC4)nc3n(Cc3cccc(OC)c3)c2=O)cc1,"inconclusive: 35.5 µM [inhibitor, single point]",–
O=C1C[C@@H](c2ccc(O)c(O)c2)Oc2cc(O[C@H]3O[C@@H](CO)[C@H](O)[C@@H](O)[C@@H]3O)cc(O)c21,"inconclusive: 22.4 µM [inhibitor, partial curve]",–
COCCCn1c(=NC(=O)c2ccccc2)c(C#N)cc2c(=O)n3cccc(C)c3nc21,–,inactive: -4.22%
COc1ccc(C(=O)Nc2ccc(OC)c([N+](=O)[O-])c2)cc1Br,"inconclusive: 28.2 µM [inhibitor, single point]",–
O=C(O)c1cc(N(Cc2ccccc2O)Cc2ccccc2O)ccc1O,"inconclusive: 20 µM [inhibitor, single point]",–
CCCCC1=CC2=C(c3ccco3)C(=O)C(C)(OC(=O)c3ccc(OC)cc3)C(=O)C2=CN1Cc1ccco1 (configuration not stated),active: 7.08 µM,–
CC(C)NC[C@H](O)c1ccc(O)c(O)c1,"inconclusive: 44.7 µM [inhibitor, single point]",–
COc1ccccc1NC(=S)N(Cc1ccccc1)Cc1cccs1,"inconclusive: 0.794 µM [inhibitor, partial curve]",–
O=C(O)c1ccc(Nc2nc(-c3ccccc3)c3ccccc3n2)cc1,"inconclusive: 5.01 µM [inhibitor, full curve]",–

# At a glance, four of the compounds above:
Compound,Potency,"activity change, negative = inhibition"
O=C(O)c1cc(N(Cc2ccccc2O)Cc2ccccc2O)ccc1O,"inconclusive: 20 µM [inhibitor, single point]",–
CCCCC1=CC2=C(c3ccco3)C(=O)C(C)(OC(=O)c3ccc(OC)cc3)C(=O)C2=CN1Cc1ccco1 (configuration not stated),active: 7.08 µM,–
CC(C)NC[C@H](O)c1ccc(O)c(O)c1,"inconclusive: 44.7 µM [inhibitor, single point]",–
COc1ccccc1NC(=S)N(Cc1ccccc1)Cc1cccs1,"inconclusive: 0.794 µM [inhibitor, partial curve]",–
